Experimental data from PubChem BioAssay AID2685 (National Center for Advancing Translational Sciences (NCATS), 2010).
Some of the results follow. Shown are side measurements of this screen, not its main read-out; they come without a call. Most of these compounds were active or inconclusive in the main read-out, so they are no random draw. The note in brackets gives the kind of curve behind each potency; many fits are weak.

Assay: qHTS Assay for Lipid Storage Modulators in Drosophila S3 Cells;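 for cell number change: cells counted by Cell Tracker Red CMTPX staining in the red channel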
Conditions: BODIPY lipid droplet fluorescence, 18-24 h; for cell number change: measured here: cell count max response, cells fed with added oleic acid
In short: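 Laser-scanning cytometry quantifies lipid droplet accumulation (500–530 nm total intensity; droplet/cell object ratio) in oleic acid-fed (400 uM added) Drosophila S3 cells treated with a concentration series. 20 uM Triacsin C defined 100% inhibition.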

[1] = measured here: cell number channel AC50, cells fed with added oleic acid
[2] = measured here: lipid fluorescence (Fed channel) AC50, cells fed with added oleic acid

In the case of `C=CCn1c(SCc2c(C)noc2C)nc2sc3c(c2c1=O)CCCCC3`, the cell number change is reported as -36.5% and the AC50 [1] is reported as 20.6 µM [falling, single point].
`Cc1ccc(S(=O)(=O)N2CCN(CC(=O)Nc3ccc([N+](=O)[O-])cc3)CC2)cc1C` showed a cell number change of -16.7%.
With `CC1CC(O)(Cc2ccccc2)C(C)CN1C` (stereo unspecified) the cell number change was -34.7%, the AC50 [1] was 4.61 µM [falling, full curve, poor fit] and the AC50 [2] was 2.59 µM [falling, full curve].
In the case of `CCN1CCN(CCCNC(=O)c2cc3c(s2)-c2ccccc2OC3)CC1`, the AC50 [1] is reported as 0.13 µM [rising, full curve, poor fit].
For `O=S(=O)(Nc1cccnc1)c1ccc(Br)c2ccccc12`, the AC50 [2] was 13 µM [falling, partial curve].
With `CCOC(=O)c1[nH]c(C(=O)O)c(CCC(=O)OC)c1C` the cell number change was 76.4%, the AC50 [1] was 23.1 µM [rising, single point] and the AC50 [2] was 1.84 µM [falling, single point].
For `O=C1CC(c2ccccc2)Cc2nc(N3CCc4ccccc4C3)ncc21` (stereo unspecified), the cell number change was 1.45% and the AC50 [1] was 0.00461 µM [falling, full curve, poor fit].
For `COC(=O)c1c(-c2ccc(Br)cc2)noc1N`, the AC50 [1] was 2.31 µM [rising, partial curve].
For `CCC(=O)c1ccc(OCc2ccc(C(=O)OC)cc2)cc1`, the cell number change was -7.57% and the AC50 [2] was 0.651 µM [falling, full curve, poor fit].
For `CCc1ccc(C(=O)CN2C(=O)C(C)N(c3ccc(C)cc3)C2=O)cc1` (stereo unspecified), the cell number change was 33.7%, the AC50 [1] was 29.1 µM [rising, single point] and the AC50 [2] was 14.6 µM [rising, partial curve].
For `CCNS(=O)(=O)c1ccc(CCC(=O)N2CCN(c3ccccc3)CC2)cc1`, the cell number change was -13.8% and the AC50 [2] was 29.1 µM [rising, single point].
Compound `COc1ccc(S(=O)(=O)Nc2cc(C)on2)cc1` has a cell number change of 21.1%.
For `O=C1CCN(CCc2ccccc2)CCN1CCO`, the cell number change was 32.7% and the AC50 [2] was 29.1 µM [rising, single point].
For `Clc1ccc(Cc2ccccn2)cc1`, the cell number change was -21.4%, the AC50 [1] was 3.66 µM [falling, full curve, poor fit] and the AC50 [2] was 3.26 µM [falling, full curve, poor fit].
In the case of `CCn1c(-c2cc(Br)cc(OC)c2O)nc2cc(S(=O)(=O)N(C)C)ccc21`, the cell number change is reported as 0.99%, the AC50 [1] is reported as 5.8 µM [rising, single point] and the AC50 [2] is reported as 5.8 µM [rising, partial curve].
With `Cc1ccc(CNC(=O)C2CC(c3ccccc3F)=NO2)cc1` (stereo unspecified) the cell number change was 38.3% and the AC50 [1] was 13 µM [rising, partial curve].
With `COc1ccc(-c2csc(Cc3nc(O)cs3)n2)cc1` the cell number change was 27.8%, the AC50 [1] was 0.231 µM [rising, full curve, poor fit] and the AC50 [2] was 0.326 µM [rising, full curve].
With `O=C(/C=C/c1ccc(F)cc1)Nc1nc2ccccc2[nH]1` the AC50 [1] was 0.00461 µM [rising, full curve, poor fit] and the AC50 [2] was 0.00461 µM [rising, full curve, poor fit].
In the case of `O=C(NC(N1CCOCC1)C(Cl)(Cl)Cl)c1ccccc1Cl` (stereo unspecified), the cell number change is reported as -52.7% and the AC50 [1] is reported as 29.1 µM [falling, single point].
With `Cc1ccc(S(=O)(=O)N2CCN(C(=O)c3cc4c(C)nn(-c5ccccc5)c4s3)CC2)cc1` the AC50 [1] was 3.26 µM [rising, partial curve, poor fit] and the AC50 [2] was 5.8 µM [rising, single point].
For `COc1ccc(CC(=O)N2N=C(C)CC2(O)c2cccnc2)cc1` (stereo unspecified), the cell number change was 8.83% and the AC50 [2] was 29.1 µM [falling, single point].
In the case of `Cc1cc(NC(=O)CC23CC4CC(C2)CC(CC(=O)Nc2cc(C)on2)(C4)C3)no1`, the cell number change is reported as -1.89% and the AC50 [2] is reported as 2.31 µM [rising, partial curve].
With `Cc1ccc(C(=O)COC(=O)CNC(=O)CN2C(=O)c3ccccc3C2=O)cc1` the cell number change was 10.3% and the AC50 [2] was 18.4 µM [falling, single point].
With `CCCN(CC(=O)Nc1ccccc1OC)C(=O)c1cc(S(=O)(=O)NCc2ccccc2)ccc1C` the cell number change was 22.2% and the AC50 [2] was 35.5 µM [rising, single point].
Compound `O=C(Nc1cccc2ccccc12)c1ccc([N+](=O)[O-])o1` has a cell number change of 15%.
In the case of `COc1ccc(CCNC(=O)C(C)OC(=O)c2cccs2)cc1OC` (stereo unspecified), the cell number change is reported as 15.3% and the AC50 [2] is reported as 29.1 µM [falling, single point].
For `CC(C)CC(=O)OCc1cn(-c2ccccc2)nn1`, the cell number change was 5.9% and the AC50 [2] was 29.1 µM [rising, single point].
In the case of `CC(C)(C)c1cc(-c2n[nH]c(=S)n2-c2ccc(Cl)cc2)n[nH]1`, the cell number change is reported as -9.59%.
For `CN1C(=CC=C2C=C(I)C(=O)C(I)=C2)C(C)(C)c2ccccc21`, the cell number change was -97.2%, the AC50 [1] was 1.03 µM [falling, full curve] and the AC50 [2] was 0.651 µM [falling, full curve].
With `CN(CCOc1ccccc1)C(=O)c1cc(COc2c(F)cccc2F)on1` the cell number change was 10.1%.
With `CCCC[n+]1ccn(-c2nc3ccccc3nc2[N-]S(=O)(=O)c2ccc(Cl)cc2)c1` the cell number change was 45.7%, the AC50 [1] was 0.0259 µM [rising, full curve, poor fit] and the AC50 [2] was 4.11 µM [rising, full curve].
In the case of `O=C(COc1ccccc1Cl)NNC(=O)c1ccc2c(=O)n3c(nc2c1)CCC3`, the cell number change is reported as 19.2% and the AC50 [2] is reported as 4.11 µM [falling, single point].
In the case of `CN1CCN(C(=O)/C(=C/c2ccccc2)c2ccccc2)CC1`, the cell number change is reported as -30.9%, the AC50 [1] is reported as 29.1 µM [falling, single point] and the AC50 [2] is reported as 0.92 µM [falling, full curve, poor fit].
With `O=C(/C=C/c1ccccc1)c1c[nH]c2ccccc12` the cell number change was 21.7% and the AC50 [2] was 0.231 µM [rising, full curve, poor fit].
`Cc1csc(Nc2ccc(Cl)cc2)[n+]1-c1ccc(Cl)cc1` gave a cell number change of 21.2%.
With `COc1ccc(/C=C(\NC(=O)c2cccs2)C(=O)NC(C)(C)C)cc1OC` the cell number change was 8.11% and the AC50 [2] was 4.61 µM [rising, single point].
With `CC12CC(c3ccccc3O1)C(C(=O)NCc1ccccc1)C(=O)N2` (stereo unspecified) the AC50 [2] was 20.6 µM [falling, partial curve].
With `COc1ccccc1C1=NOC(C)(c2sc(-c3ccc(Cl)cc3)nc2C)C1` (stereo unspecified) the cell number change was 17.6% and the AC50 [2] was 8.2 µM [rising, partial curve].
In the case of `CC(=O)c1ccc(NC(=O)CN2C(=O)NC(C)(C3CCCCC3)C2=O)cc1` (stereo unspecified), the cell number change is reported as -3.61% and the AC50 [2] is reported as 2.06 µM [falling, partial curve].
With `O=C(OCc1cnc(Cl)s1)c1cccc(Cl)c1` the cell number change was 68.8%, the AC50 [1] was 29.1 µM [rising, partial curve, poor fit] and the AC50 [2] was 29.1 µM [rising, partial curve, poor fit].
With `Cc1ccc(C(=O)NC(=S)NNC(=O)CC#N)cc1` the cell number change was -18.5% and the AC50 [2] was 13 µM [falling, single point].
For `O=C(O)C1CCCCC1C(=O)NCCCN1CCCC1=O` (stereo unspecified), the cell number change was 29.3% and the AC50 [2] was 3.26 µM [rising, full curve, poor fit].
For `Fc1ccc(-c2[nH]ncc2CN2CCN(c3ccc(F)cc3)CC2)cc1`, the cell number change was -41.3%, the AC50 [1] was 7.31 µM [falling, partial curve] and the AC50 [2] was 8.2 µM [falling, partial curve, poor fit].
For `CCOC(=O)Nc1nnc(CCc2ccccc2)s1`, the cell number change was -30%, the AC50 [1] was 29.1 µM [falling, partial curve, poor fit] and the AC50 [2] was 6.51 µM [falling, partial curve].
In the case of `COc1cc(/C=N/NC(=O)c2ccc(Cl)cc2)ccc1OCC(=O)N1CC(C)OC(C)C1` (stereo unspecified), the cell number change is reported as 33% and the AC50 [1] is reported as 29.1 µM [rising, single point].
With `Cc1cccc(OCC(=O)Nc2ccc(C(=O)O)cc2NC(=O)COc2cccc(C)c2)c1` the cell number change was 6.06%.
Work on `COc1ccc(OC)c(-c2nc(C(N)=O)c3[nH]c(=O)n(-c4ccc(F)cc4)c3n2)c1` yielded a cell number change of -2.58%.
`O=C(CNC(=O)[C@@H]1Cc2ccccc2CN1)NCc1ccco1` gave a cell number change of 22%.
With `Nc1ccc2oc(-c3cccc4ccccc34)nc2c1` the cell number change was -4.37% and the AC50 [2] was 29.1 µM [rising, single point].
For `Cc1ccc(NC(=O)Cn2cc(C(=O)C3CC3)c3ccccc32)c(C)c1`, the cell number change was 85.7%, the AC50 [1] was 29.1 µM [rising, single point] and the AC50 [2] was 29.1 µM [rising, single point].
With `COc1ccc(C2CC(c3cccs3)=NN2C(=O)CN2CCCCC2)cc1` (stereo unspecified) the AC50 [1] was 0.0259 µM [falling, full curve, poor fit] and the AC50 [2] was 0.58 µM [falling, single point].
In the case of `O=C(COC(=O)CCc1ccccc1)Nc1ncc(Cl)cc1Cl`, the cell number change is reported as -0.193% and the AC50 [1] is reported as 6.51 µM [falling, single point].
For `CSc1ccc(OC2CCN(Cc3ccccc3)CC2)cc1`, the cell number change was -33.3%, the AC50 [1] was 10.3 µM [falling, partial curve] and the AC50 [2] was 6.51 µM [falling, partial curve].
For `CC1=C(C(=O)N2CCN(c3cc(C)ccc3C)CC2)C2(CCC(C)CC2)OC1=O` (stereo unspecified), the cell number change was -4.78% and the AC50 [2] was 14.6 µM [rising, single point].
With `O=C(Cc1cccs1)N/N=C/C(Cl)=C/c1ccccc1` the cell number change was -37.6%, the AC50 [1] was 8.2 µM [falling, partial curve] and the AC50 [2] was 6.51 µM [falling, partial curve].
In the case of `CCCCC(=O)Nc1cc(OC)c(NC(=O)C2CCCCC2)cc1OC`, the AC50 [2] is reported as 29.1 µM [rising, single point].
With `CN(C)c1ccc(NC(=O)CSc2nnc(-c3ccco3)c(-c3ccco3)n2)cc1` the cell number change was 1.39% and the AC50 [1] was 4.61 µM [rising, single point].
For `CCOC(=O)N1CCC(NC(=O)CSCc2nc(-c3sccc3C)oc2C)CC1`, the cell number change was -31.8%.
